Results are given in words; binding and its absence hold for the method and conditions named. In cells and extracts the contact can be indirect. Some binding calls cover weakened binding; strength is not graded here.
Biological target: B-cell CLL/lymphoma 7 protein family member C (BCL7C) (human (endogenous in SW-13)) (UniProt Q8WUZ0)
Test: co-IP; immunoprecipitation (anti-V5, BCL7B, BCL7C, BAF53a, BAF155, GLTSCR1L, BAF45b or IgG) from iBRG1 or i∆HSA cells after 24 h doxycycline; cells crosslinked with 1% formaldehyde, high-salt extraction (420 mM NaCl), nuclease, diluted 1:5 in IP buffer (100 mM NaCl, 0.1% NP-40), Protein G Dynabeads, Western blot

binding: binds
Substance: iBRG1 (inducible WT BRG1, Brahma-related gene 1, with C-terminal V5 tag) (from UniProt P51532 1-1647) (enzyme)

— PMC9939006
